Measurements reported in publication PMC5324674.
Results are given in words; binding and its absence hold for the method and conditions named. Sequences can lack the tags named with a protein.

Target: T1, NAR1, ProQuest two‐hybrid fusion (Arabidopsis thaliana) (UniProt Q94CL6)
T1 sequence: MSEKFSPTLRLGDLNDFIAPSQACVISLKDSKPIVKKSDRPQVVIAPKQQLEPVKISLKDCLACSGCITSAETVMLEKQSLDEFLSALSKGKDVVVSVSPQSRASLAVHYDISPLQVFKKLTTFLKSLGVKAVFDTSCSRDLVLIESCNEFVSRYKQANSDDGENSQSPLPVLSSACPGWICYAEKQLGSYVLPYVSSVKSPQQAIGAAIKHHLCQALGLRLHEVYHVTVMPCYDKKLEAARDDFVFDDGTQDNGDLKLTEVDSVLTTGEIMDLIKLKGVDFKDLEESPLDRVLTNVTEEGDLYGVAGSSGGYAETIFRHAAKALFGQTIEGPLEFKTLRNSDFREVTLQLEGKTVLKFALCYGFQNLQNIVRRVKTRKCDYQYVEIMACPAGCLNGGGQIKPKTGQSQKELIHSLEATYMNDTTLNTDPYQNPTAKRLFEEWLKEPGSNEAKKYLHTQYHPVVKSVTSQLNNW
Assay: two-hybrid; Invitrogen ProQuest Two-Hybrid System with Gateway Technology; binary tests of BD and AD fusions; growth on dropout histidine medium with 100 mM 3-AT

B1: Nucleotide‐Binding Protein 35 kDa (NBP35), full‐length, ProQuest two‐hybrid fusion (protein, UniProt Q8H1Q2 1-350)
chain: MENGDIPEDANEHCPGPQSESAGKSDSCAGCPNQEACATAPKGPDPDLVAIAERMSTVKHKILVLSGKGGVGKSTFSAQLSFALAGMDHQVGLMDIDICGPSIPKMLGLEGQEIHQSNLGWSPVYVEDNLGVMSIGFMLPNSDEAVIWRGPRKNGLIKQFLKDVYWGEIDYLVVDAPPGTSDEHISIVQYLLPTGIDGAIIVTTPQEVSLIDVRKEVSFCKKVGVPVLGVVENMSGLSQPLKDVKFMKLATETGSSINVTEDVIACLRKNAPELLDIVACSEVFDSSGGGAERMCREMGVPFLGKVPMDPQLCKAAEQGKSCFEDNKCLISAPALKSIIQKVVPSTVMTE
  binding: no binding
